The supplement of paper PMC10849652
The other results are listed elsewhere or left out. Residues, ends and D or L forms follow the SMILES beside them. *: point of attachment. Cbz = O=C(OCc1ccccc1)*

Protein sequences, listed by entry. Tags and fused reporters are not part of them. Lines headed by an entry give the natural chain unless they say otherwise; changes in a name come on top.
UniProt P13693: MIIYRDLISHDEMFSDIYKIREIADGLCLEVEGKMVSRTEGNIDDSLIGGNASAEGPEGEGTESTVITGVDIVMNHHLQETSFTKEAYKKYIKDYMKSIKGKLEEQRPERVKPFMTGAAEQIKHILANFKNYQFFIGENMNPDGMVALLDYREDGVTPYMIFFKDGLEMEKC
UniProt P28908: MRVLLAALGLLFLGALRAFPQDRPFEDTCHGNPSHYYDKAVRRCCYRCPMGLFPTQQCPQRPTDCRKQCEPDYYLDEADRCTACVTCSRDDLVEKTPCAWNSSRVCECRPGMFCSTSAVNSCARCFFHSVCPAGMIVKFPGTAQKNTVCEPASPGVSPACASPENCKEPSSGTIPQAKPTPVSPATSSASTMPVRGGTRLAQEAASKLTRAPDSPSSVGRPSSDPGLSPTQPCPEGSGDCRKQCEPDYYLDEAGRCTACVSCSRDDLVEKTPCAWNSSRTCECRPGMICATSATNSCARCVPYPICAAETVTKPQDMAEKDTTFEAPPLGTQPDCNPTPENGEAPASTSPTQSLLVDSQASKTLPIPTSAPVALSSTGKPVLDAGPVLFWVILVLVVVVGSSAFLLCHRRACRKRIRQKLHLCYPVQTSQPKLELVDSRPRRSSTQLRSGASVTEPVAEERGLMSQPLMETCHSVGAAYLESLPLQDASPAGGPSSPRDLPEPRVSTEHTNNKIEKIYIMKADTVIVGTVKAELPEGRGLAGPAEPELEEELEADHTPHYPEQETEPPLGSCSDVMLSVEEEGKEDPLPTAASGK
UniProt Q15642: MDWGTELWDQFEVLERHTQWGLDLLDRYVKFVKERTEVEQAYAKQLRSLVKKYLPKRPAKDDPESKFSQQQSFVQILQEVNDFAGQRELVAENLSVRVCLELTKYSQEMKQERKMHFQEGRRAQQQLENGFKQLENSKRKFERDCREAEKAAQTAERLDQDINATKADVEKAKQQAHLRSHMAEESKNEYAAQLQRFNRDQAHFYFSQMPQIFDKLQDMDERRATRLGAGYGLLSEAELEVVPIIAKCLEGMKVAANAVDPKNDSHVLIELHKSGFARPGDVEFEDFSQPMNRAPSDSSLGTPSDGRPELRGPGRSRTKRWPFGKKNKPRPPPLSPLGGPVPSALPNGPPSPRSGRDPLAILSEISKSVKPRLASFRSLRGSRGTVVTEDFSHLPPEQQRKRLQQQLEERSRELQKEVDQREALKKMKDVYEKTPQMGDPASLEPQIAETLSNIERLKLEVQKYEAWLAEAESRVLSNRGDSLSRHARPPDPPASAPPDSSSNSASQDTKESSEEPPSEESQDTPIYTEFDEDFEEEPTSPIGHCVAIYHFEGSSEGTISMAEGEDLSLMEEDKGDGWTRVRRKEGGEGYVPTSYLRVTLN
UniProt O43399: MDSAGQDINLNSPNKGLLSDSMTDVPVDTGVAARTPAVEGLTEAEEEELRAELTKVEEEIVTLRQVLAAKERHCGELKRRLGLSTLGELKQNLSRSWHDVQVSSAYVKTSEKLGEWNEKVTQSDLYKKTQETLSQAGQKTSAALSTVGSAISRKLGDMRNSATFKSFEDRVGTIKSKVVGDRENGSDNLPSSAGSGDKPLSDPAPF
UniProt Q9UPN9: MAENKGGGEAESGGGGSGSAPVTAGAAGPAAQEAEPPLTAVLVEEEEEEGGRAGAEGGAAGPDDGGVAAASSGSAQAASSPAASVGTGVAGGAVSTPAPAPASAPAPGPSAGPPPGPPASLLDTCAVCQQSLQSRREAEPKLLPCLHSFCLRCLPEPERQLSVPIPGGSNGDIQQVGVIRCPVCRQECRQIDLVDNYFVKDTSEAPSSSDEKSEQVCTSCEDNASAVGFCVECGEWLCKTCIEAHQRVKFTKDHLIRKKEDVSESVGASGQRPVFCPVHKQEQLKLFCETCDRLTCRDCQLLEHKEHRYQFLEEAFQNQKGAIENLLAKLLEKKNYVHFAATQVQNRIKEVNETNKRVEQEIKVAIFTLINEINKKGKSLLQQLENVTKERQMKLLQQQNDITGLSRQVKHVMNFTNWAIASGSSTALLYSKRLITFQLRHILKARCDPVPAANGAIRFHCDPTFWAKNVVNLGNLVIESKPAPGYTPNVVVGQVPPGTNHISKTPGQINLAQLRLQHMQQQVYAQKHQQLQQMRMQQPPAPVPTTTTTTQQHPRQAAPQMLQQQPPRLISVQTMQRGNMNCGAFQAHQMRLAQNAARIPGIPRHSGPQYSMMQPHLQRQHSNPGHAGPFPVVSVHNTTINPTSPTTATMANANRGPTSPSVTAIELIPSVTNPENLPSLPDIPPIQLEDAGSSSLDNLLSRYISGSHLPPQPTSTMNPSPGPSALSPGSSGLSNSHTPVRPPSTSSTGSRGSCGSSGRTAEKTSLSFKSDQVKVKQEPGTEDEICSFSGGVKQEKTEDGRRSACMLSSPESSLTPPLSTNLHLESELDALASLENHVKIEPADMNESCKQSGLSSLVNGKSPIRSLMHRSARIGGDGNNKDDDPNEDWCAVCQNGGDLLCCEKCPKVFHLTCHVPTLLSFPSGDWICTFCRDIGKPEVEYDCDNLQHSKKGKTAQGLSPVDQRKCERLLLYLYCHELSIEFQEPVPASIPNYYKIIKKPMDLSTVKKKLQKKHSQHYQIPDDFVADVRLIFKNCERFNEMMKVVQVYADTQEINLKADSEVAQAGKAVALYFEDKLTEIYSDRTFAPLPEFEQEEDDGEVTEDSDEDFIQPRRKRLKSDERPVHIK
UniProt P07951, whole entry, looked up: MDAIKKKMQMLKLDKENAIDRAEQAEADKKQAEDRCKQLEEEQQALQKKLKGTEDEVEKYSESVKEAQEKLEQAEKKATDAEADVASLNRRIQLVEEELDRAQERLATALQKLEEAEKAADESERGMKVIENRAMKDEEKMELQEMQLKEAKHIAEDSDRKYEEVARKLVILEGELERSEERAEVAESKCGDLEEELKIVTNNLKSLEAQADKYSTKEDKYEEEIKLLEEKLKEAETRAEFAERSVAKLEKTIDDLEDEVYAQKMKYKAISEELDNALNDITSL
UniProt P11387: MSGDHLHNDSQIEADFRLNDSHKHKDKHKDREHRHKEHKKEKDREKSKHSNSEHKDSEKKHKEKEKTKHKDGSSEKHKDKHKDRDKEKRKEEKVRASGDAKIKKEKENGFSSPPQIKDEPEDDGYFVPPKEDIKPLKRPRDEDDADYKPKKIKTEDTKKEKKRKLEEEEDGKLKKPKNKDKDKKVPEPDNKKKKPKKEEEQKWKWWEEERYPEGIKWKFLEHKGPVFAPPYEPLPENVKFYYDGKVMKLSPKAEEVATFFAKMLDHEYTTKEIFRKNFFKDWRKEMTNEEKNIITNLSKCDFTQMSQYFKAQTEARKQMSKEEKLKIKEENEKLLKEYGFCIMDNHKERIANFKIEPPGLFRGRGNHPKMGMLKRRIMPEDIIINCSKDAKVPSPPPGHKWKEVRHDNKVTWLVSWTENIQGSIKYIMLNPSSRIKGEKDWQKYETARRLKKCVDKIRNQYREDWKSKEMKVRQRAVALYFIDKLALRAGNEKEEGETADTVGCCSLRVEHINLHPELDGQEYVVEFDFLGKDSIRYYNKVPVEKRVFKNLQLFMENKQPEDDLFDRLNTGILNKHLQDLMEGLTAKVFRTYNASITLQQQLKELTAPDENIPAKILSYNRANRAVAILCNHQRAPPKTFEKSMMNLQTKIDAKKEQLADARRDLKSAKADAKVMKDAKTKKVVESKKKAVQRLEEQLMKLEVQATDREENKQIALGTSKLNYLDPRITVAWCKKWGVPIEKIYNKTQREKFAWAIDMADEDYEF
UniProt Q7Z2T5: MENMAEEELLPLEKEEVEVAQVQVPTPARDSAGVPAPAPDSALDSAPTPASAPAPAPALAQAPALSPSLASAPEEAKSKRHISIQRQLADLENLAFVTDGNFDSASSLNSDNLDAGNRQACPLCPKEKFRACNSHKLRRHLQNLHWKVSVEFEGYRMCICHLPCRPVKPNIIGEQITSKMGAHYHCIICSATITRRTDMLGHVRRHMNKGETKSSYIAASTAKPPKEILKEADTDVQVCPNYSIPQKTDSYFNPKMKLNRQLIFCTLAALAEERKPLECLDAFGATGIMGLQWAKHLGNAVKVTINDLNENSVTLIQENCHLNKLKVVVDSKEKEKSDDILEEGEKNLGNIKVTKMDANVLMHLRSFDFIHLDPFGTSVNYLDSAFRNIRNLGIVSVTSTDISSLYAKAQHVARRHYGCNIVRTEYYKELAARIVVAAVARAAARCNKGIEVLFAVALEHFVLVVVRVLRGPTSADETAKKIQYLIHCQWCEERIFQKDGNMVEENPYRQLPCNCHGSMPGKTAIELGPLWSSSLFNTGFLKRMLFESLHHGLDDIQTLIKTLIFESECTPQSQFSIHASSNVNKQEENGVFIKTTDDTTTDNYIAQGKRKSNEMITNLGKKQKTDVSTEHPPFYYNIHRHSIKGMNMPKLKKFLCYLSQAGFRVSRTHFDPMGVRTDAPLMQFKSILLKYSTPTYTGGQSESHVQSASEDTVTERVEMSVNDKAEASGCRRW
UniProt P02585, whole entry, looked up: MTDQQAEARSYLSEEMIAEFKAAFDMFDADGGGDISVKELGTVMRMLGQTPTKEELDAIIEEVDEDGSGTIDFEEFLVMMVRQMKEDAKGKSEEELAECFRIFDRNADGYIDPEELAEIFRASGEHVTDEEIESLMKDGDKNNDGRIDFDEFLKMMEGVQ
UniProt Q86SZ2: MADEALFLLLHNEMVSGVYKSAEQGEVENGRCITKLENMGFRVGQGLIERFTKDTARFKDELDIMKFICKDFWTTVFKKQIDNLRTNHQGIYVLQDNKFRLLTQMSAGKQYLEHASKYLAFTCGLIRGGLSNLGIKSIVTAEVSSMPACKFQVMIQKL
UniProt A5PLN9: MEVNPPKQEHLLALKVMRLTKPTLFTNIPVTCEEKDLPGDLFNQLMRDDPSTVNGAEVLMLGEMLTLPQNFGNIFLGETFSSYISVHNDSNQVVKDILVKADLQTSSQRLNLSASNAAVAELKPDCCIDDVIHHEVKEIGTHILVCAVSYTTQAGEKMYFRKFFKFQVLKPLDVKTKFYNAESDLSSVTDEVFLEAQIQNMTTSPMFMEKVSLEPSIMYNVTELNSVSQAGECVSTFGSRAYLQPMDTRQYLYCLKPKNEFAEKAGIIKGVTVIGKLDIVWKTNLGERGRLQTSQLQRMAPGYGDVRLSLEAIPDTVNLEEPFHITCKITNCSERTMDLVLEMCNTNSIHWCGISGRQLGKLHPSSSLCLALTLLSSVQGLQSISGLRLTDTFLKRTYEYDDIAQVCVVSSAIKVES
UniProt Q15645: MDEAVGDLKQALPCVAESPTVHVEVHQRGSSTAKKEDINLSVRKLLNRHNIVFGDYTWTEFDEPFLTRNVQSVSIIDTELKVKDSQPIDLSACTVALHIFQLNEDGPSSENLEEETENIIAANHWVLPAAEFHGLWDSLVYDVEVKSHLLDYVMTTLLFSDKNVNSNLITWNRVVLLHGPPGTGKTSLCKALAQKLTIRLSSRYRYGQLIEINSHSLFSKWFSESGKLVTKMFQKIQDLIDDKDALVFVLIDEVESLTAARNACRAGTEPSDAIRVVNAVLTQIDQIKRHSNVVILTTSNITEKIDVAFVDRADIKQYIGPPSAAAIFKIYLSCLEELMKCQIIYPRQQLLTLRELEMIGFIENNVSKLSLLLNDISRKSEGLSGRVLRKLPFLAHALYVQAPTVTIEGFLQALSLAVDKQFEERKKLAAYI
UniProt Q7L0Y3: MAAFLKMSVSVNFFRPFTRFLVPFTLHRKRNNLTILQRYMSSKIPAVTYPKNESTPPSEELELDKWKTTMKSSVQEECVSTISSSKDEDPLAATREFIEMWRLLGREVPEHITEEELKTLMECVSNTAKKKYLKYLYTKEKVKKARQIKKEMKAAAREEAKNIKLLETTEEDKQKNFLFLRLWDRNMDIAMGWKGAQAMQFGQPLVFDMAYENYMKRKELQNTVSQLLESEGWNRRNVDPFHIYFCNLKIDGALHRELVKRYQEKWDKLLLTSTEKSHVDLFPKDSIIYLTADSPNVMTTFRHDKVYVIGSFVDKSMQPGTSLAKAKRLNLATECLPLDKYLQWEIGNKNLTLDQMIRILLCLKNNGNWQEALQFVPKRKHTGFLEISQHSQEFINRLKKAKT

Experiments:
Experiment in all cases: log2 fold change, soluble protein after heating vs DMSO (PISA); higher = thermal stabilisation; K562 cells, 10 uM, 30 min; active = over 0.2 and 3.5 SD of the protein, either way, in both replicates (recomputed)
[1] = compound: C#Cc1cccc(Nc2ncnc3cc(OCCOC)c(OCCOC)cc23)c1 [erlotinib]
Summary of the method: (§1)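 For each measurement, 10 μM compound was applied for 30 min to K562 cells at 2×10^6 cells/mL. Aliquots were heated for 3 min across 48°C-58°C, pooled, and extracted in PBS with 0.5% NP-40 at 4°C; the supernatant after 21,000xg for 90 min was soluble protein. This was quantified by TMTpro 16plex LC-MS/MS with channel sums equalised, and thermal stability was reported relative to control samples from duplicates, on a log2 fold-change scale.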

[2] = compound: C/C(=N\NC(=O)C1=CC(=CC=C1)S(=O)(=O)N2CCOCC2)/C3=C(C=CC(=C3)Cl)O
Summary of the method: as §1

[3] = compound: C1=CC(=C(C=C1Cl)C2=NC3=NC=CN=C3C(=N2)NC4=CC=NC=C4)F
Summary of the method: as §1

[4] = compound: C1=CC(=CC=C1C2=NC3=C(N2)C=C(C=C3)C(=O)N)OC4=CC=C(C=C4)Cl
Summary of the method: as §1

[5] = compound: C1=CC2=C(C=CC(=C2)/C=C\3/C(=O)NC(=NCC4=CC=CS4)S3)N=C1
Summary of the method: as §1

[6] = compound: C1=CC2=NC=CN=C2C=C1/C=C/3\C(=O)NC(=O)S3
Summary of the method: as §1

[7] = compound: C1=CC=C(C=C1)C2=NC(=C(N2)C3=CC=NC=C3)C4=CC(=C(C=C4)Cl)O
Summary of the method: as §1

[8] = compound: C1=CC=C2C(=C1)C3=NNC4=CC=CC(=C43)C2=O
Summary of the method: as §1

[9] = compound: C1CCN(C1)C(=O)NC2=CC=CC(=C2)NC3=NC=C(C(=N3)NCCC4=CN=CN4)Br
Summary of the method: as §1

[10] = compound: C1CN(CCC1(CC2=CC=C(C=C2)Cl)N)C3=NC=NC4=C3C=CN4
Summary of the method: as §1

[11] = compound: C1COCCN1CCN2C3=CC=CC=C3N=C2NC(=O)C4=CC(=CC=C4)[N+](=O)[O-] [IRAK-1-4 Inhibitor I]
Summary of the method: as §1

[12] = compound: C=CC(=O)N1CCC[C@@H](n2nc(-c3ccc(Oc4ccccc4)cc3)c3c(N)ncnc32)C1 [ibrutinib]
Summary of the method: as §1

[13] = compound: CC(=O)c1cnc2ccc(-c3cc(Cl)c(O)c(Cl)c3)nc2c1N[C@H]1CC[C@H](CN(C)C)CC1
Summary of the method: as §1

[14] = compound: CC(C)(C)Cn1c(N)nc2ccc(-c3[nH]c(C(C)(C)C)nc3-c3ccc(F)cc3)nc21 [ralimetinib]
Summary of the method: as §1

[15] = compound: CC(C)(O)CC(=O)NCCn1ccc2ncnc(Nc3ccc(Oc4cccc(C(F)(F)F)c4)c(Cl)c3)c21
Summary of the method: as §1

[16] = compound: CC(C)C1=C2N=C(C=C(N2N=C1)NCC3=CC=CC=C3)NCCCCCCN
Summary of the method: as §1

[17] = compound: CC(C)C[C@@H](C=O)NC(=O)[C@H](CC(C)C)NC(=O)[C@H](CC(C)C)NC(=O)OCc1ccccc1
Summary of the method: as §1

[18] = compound: CC(C)N(C[C@H]1O[C@@H](n2cnc3c(N)ncnc32)[C@H](O)[C@@H]1O)[C@H]1C[C@@H](CCc2nc3cc(C(C)(C)C)ccc3[nH]2)C1 [pinometostat]
Summary of the method: as §1

[19] = compound: CC1=C(C(CC(=O)N1)C2=CC=C(C=C2)C(F)(F)F)C(=O)NC3=C(C=C4C(=C3)C=NN4)F
Summary of the method: as §1

[20] = compound: CC1=C(C2=C(C=C1)C(=O)C3=CC=CC=C3N2CCCN)C
Summary of the method: as §1

Measured: log2 fold change

TRRAP (UniProt Q9Y4A5)
inactive: [1] -0.017 | [2] 0.031 | [3] 0.012 | [4] 0.031 | [5] -0.009 | [6] 0.027 | [7] -0.002 | [8] -0.036 | [9] -0.017 | [10] 0.049 | [11] 0.01 | [12] -0.013 | [13] 0.017 | [14] -0.015 | [15] -0.011 | [16] 0.036 | [17] 0.012 | [18] 0.009 | [19] 0.014 | [20] 0.034

TPT1 (UniProt P13693)
inactive: [1] -0.025 | [2] 0.07 | [3] 0.077 | [4] 0.025 | [5] 0.054 | [6] 0.002 | [7] 0.048 | [8] 0.03 | [9] -0.003 | [10] 0.011 | [11] 0.02 | [12] 0 | [13] -0.019 | [14] -0.016 | [15] -0.046 | [16] 0.006 | [17] 0.025 | [18] -0.015 | [19] -0.012 | [20] 0.12

TNFRSF8 (UniProt P28908)
active: [16] 0.219
inactive: [1] 0.009 | [2] 0.017 | [3] -0.015 | [4] 0.006 | [5] -0.109 | [6] 0.024 | [7] -0.062 | [8] -0.061 | [9] -0.046 | [10] 0.05 | [11] 0.056 | [12] 0.046 | [13] 0.005 | [14] -0.143 | [15] 0.016 | [17] 0.074 | [18] -0.01 | [20] -0.022

TRIP10 (UniProt Q15642)
inactive: [1] 0.052 | [2] 0.015 | [3] 0.203 | [4] 0.022 | [5] 0.013 | [6] -0.025 | [7] 0.044 | [8] 0.011 | [9] 0.013 | [10] -0.026 | [11] 0.007 | [12] 0.002 | [13] 0.009 | [14] 0.001 | [15] 0 | [16] -0.022 | [17] 0.007 | [18] -0.007 | [20] -0.02

TPD52L2 isoform 7 (UniProt O43399)
inactive: [1] -0.014 | [2] -0.023 | [3] 0 | [4] 0.01 | [5] -0.01 | [6] 0.025 | [7] 0.025 | [8] 0.001 | [9] 0.032 | [10] 0.044 | [11] -0.004 | [12] 0.003 | [13] 0.011 | [14] 0.019 | [15] 0.018 | [16] 0.052 | [17] -0.011 | [18] -0.052 | [19] 0.001 | [20] 0.008

TRIM33 (UniProt Q9UPN9)
inactive: [1] 0.114 | [2] 0.133 | [3] -0.001 | [4] -0.083 | [5] 0.086 | [6] 0.023 | [7] 0.013 | [8] 0.05 | [9] -0.015 | [10] -0.053 | [11] -0.034 | [12] 0 | [13] -0.188 | [14] 0.084 | [15] -0.16 | [16] -0.132 | [17] 0.068 | [18] 0.056 | [19] 0.017 | [20] 0.034

TPM2 (UniProt P07951)
inactive: [1] -0.05 | [2] 0.009 | [3] 0.417 | [4] 0.021 | [5] -0.146 | [6] 0.025 | [7] 0.102 | [8] 0.02 | [9] -0.069 | [10] 0.101 | [11] 0.013 | [12] -0.018 | [13] 0.027 | [14] 0.059 | [15] -0.053 | [16] 0.037 | [17] -0.163 | [18] -0.1 | [20] -0.103

TOP1 (UniProt P11387)
inactive: [1] 0.012 | [2] -0.067 | [3] -0.061 | [4] 0.032 | [5] -0.097 | [6] -0.02 | [7] 0.177 | [8] 0.168 | [9] -0.134 | [10] -0.378 | [11] -0.215 | [12] 0.024 | [13] 0.056 | [14] 0.25 | [15] 0.009 | [16] -0.179 | [17] 0.271 | [18] 0.365 | [19] -0.09 | [20] 0.382

TRMT1L (UniProt Q7Z2T5)
inactive: [1] -0.146 | [2] -0.255 | [3] -0.628 | [4] 0.018 | [5] -0.128 | [6] 0.005 | [7] -0.01 | [8] -0.028 | [9] 0.105 | [10] -0.104 | [11] -0.116 | [12] 0.009 | [13] 0.229 | [14] 0.202 | [15] 0 | [16] 0.057 | [17] 0.175 | [18] 0.403 | [19] -0.02 | [20] -0.269

TNNC2 (UniProt P02585)
inactive: [1] 0.035 | [2] -0.007 | [3] -0.004 | [4] 0.018 | [5] 0.047 | [6] 0.026 | [7] -0.058 | [8] -0.026 | [9] 0.101 | [10] -0.449 | [11] 0.042 | [12] 0.012 | [13] 0.004 | [14] -0.068 | [15] 0 | [16] 0.116 | [17] 0.025 | [18] -0.067 | [20] 0.114

Reprinted from the results shown (2 entries):
TRIM33 (UniProt Q9UPN9)
inactive: [1] 0.114 | [2] 0.133 | [3] -0.001 | [4] -0.083 | [5] 0.086 | [6] 0.023 | [7] 0.013 | [8] 0.05 | [9] -0.015 | [10] -0.053 | [11] -0.034 | [12] 0 | [13] -0.188 | [14] 0.084 | [15] -0.16 | [16] -0.132 | [17] 0.068 | [18] 0.056 | [19] 0.017 | [20] 0.034

TPM2 (UniProt P07951)
inactive: [1] -0.05 | [2] 0.009 | [3] 0.417 | [4] 0.021 | [5] -0.146 | [6] 0.025 | [7] 0.102 | [8] 0.02 | [9] -0.069 | [10] 0.101 | [11] 0.013 | [12] -0.018 | [13] 0.027 | [14] 0.059 | [15] -0.053 | [16] 0.037 | [17] -0.163 | [18] -0.1 | [20] -0.103

(list continues)

TRAPPC6B (UniProt Q86SZ2)
inactive: [1] 0.026 | [2] 0.07 | [4] -0.016 | [5] 0.011 | [6] -0.006 | [7] -0.016 | [8] -0.014 | [9] -0.048 | [10] 0.018 | [11] -0.022 | [12] 0.032 | [13] -0.001 | [14] -0.015 | [15] -0.138 | [16] 0.032 | [17] 0.032 | [18] -0.036 | [20] 0.004
active: [3] 0.315

TOLLIP (UniProt Q9H0E2)
inactive: [1] 0.022 | [2] 0.101 | [3] 0.115 | [4] -0.054 | [5] 0.088 | [6] -0.014 | [7] 0.005 | [8] 0.011 | [9] -0.019 | [10] -0.044 | [11] 0.011 | [12] 0.006 | [13] -0.039 | [14] 0.045 | [15] -0.064 | [16] -0.084 | [17] 0.033 | [18] -0.07 | [19] -0.029 | [20] 0.075

TRAPPC13 isoform 5 (UniProt A5PLN9)
inactive: [1] 0.133 | [2] 0.047 | [3] -0.028 | [4] -0.047 | [5] 0.084 | [6] 0.021 | [7] 0 | [8] -0.038 | [9] -0.005 | [10] 0.009 | [11] -0.06 | [12] -0.047 | [13] -0.121 | [14] -0.048 | [15] -0.093 | [16] -0.014 | [17] 0.026 | [18] 0.033 | [20] -0.047

TRIM32 (UniProt Q13049)
inactive: [1] 0.007 | [2] -0.096 | [3] 0.068 | [4] 0.146 | [5] 0.142 | [6] 0.062 | [7] -0.032 | [8] -0.137 | [9] 0.075 | [10] 0.149 | [11] 0.036 | [12] 0.009 | [13] 0.043 | [14] 0.024 | [15] 0.113 | [16] 0.003 | [17] 0.027 | [18] -0.006 | [19] 0.001 | [20] -0.085

TRIP13 (UniProt Q15645)
inactive: [1] 0.022 | [2] 0.057 | [3] 0.037 | [4] 0.02 | [5] -0.001 | [6] 0.023 | [7] 0.043 | [8] -0.002 | [9] 0.011 | [10] 0.074 | [11] 0.015 | [12] -0.013 | [13] -0.005 | [14] -0.027 | [15] -0.008 | [16] -0.032 | [17] -0.032 | [18] -0.025 | [19] 0.028 | [20] -0.012

TRMT10C (UniProt Q7L0Y3)
inactive: [1] -0.015 | [2] 0.066 | [3] 0.09 | [4] 0.062 | [5] 0.009 | [6] -0.007 | [7] 0.036 | [8] 0.036 | [9] -0.008 | [10] 0.009 | [11] 0.029 | [12] 0.011 | [13] -0.07 | [14] -0.06 | [15] -0.055 | [16] 0.012 | [17] 0.005 | [18] -0.021 | [20] 0.014
